Consider three compounds from US7192722B2, “Phenethanolamine-derived haptens, immunogens, antibodies and conjugates” (Randox Laboratories, priority 2004, dated 2007).

SMILES strings stand for the structures.

The subject of data set [1] is IgG fraction of the antiserum raised to immunogen D (hapten D-BSA). Put plainly: Competitive ELISA for isoxsuprine, Example 24: antiserum to immunogen D, conjugate D (hapten D-HRP). In kind it is binding. A general note: ELISA stands for enzyme-linked immunosorbent assay.
Data set [2] concerns IgG fraction of the antiserum raised to immunogen C (hapten C-BSA). Put plainly: Competitive ELISA for ractopamine, Example 22 b): antiserum to immunogen C, conjugate C (hapten C-HRP). The format is binding, sheep. The method, then: (§1) An aqueous solution of each immunogen was formulated with Freund's Complete Adjuvant (FCA) to form an emulsion consisting of 2 mg/ml immunogen in 50% (v/v) FCA. Three sheep were immunised with this emulsion (1° immunisation), 0.25 ml being subcutaneously injected at each of four sites in the flank of each animal. Subsequent immunizations (boosts) contained 1 mg/ml immunogen. All boosts were emulsified in 50% (v/v) Freund's Incomplete Adjuvant (FIA) and were administered in the same manner as the 1° immunisation, at monthly intervals for 1 year. Blood sampling took place 7 to 14 days after each boost. Each sample was processed to produce antiserum, which was further purified by caprylic acid and ammonium sulfate precipitation to yield an immunoglobulin G (IgG) fraction.
The same definitions apply for A450, B, B0 and IC50.
(§2) Employing each series of standards in the ractopamine competitive ELISAs, calibration curves were generated and these were used to determine the cross-reactivity of each immunoassay with these substances.

In data set [3] the test system is IgG fraction of the antiserum raised to immunogen A (hapten A-BSA). Nature of the data set: Competitive ELISA for ractopamine, Example 22 a): antiserum to immunogen A, conjugate A (hapten A-HRP). In kind it is binding, sheep. The method, then:
as §1
The appropriate antibody coating dilution was determined using standard ELISA checkerboard techniques. The plate was incubated for 2 hours at 37° C., washed 4 times with Tris buffered saline containing Tween 20 (TBST) and tapped dry. Standard solutions of ractopamine were prepared in TBST at 0, 0.05, 0.1, 0.5, 1, and 5 ng/ml, and 50 μl of each was added to the appropriate wells. […] The appropriate dilution of conjugate was also determined using standard ELISA checkerboard techniques. The plate was incubated at 37° C. for 2 hours. Excess unbound conjugate was removed by washing 6 times over a 10 minute period with TBST. 125 μl of tetramethylbenzidine (TMB) substrate solution was added to each well of the plate that was then incubated for 15 to 20 minutes in the dark at room temperature. The reaction was terminated by addition of 125 μl 0.2M H2SO4 to each well. The absorbance was then measured at 450 nm using a microtiter plate reader.
as §2

Data set [4] relates to IgG fraction of the antiserum raised to immunogen E (hapten E-BSA). Put plainly: Competitive ELISA for ritodrine, Example 25: antiserum to immunogen E, conjugate E (hapten E-HRP). In kind it is binding.

With `CC(COc1ccccc1)NC(C)C(O)c1ccc(O)cc1` (stereo not drawn) [Isoxsuprine], the A450 is 0.743 in data set [1] (isoxsuprine 0.5 ng/ml); 0.399 in data set [1] (isoxsuprine 1 ng/ml); 0.158 in data set [1] (isoxsuprine 5 ng/ml); 0.115 in data set [1] (isoxsuprine 10 ng/ml); 0.036 in data set [1] (isoxsuprine 50 ng/ml); 0.032 in data set [1] (isoxsuprine 100 ng/ml). In addition, the A450 in data set [1] (isoxsuprine 200 ng/ml) was 0.022.
Take `CC(CCc1ccc(O)cc1)NCC(O)c1ccc(O)cc1` (stereo not drawn) [Ractopamine]: the A450 in data set [2] (ractopamine 0.025 ng/ml) came to 1.683; in data set [2] (ractopamine 0.1 ng/ml) it was 1.302; in data set [2] (ractopamine 0.25 ng/ml) it was 0.918; in data set [2] (ractopamine 0.5 ng/ml) it was 0.68; in data set [2] (ractopamine 1 ng/ml), 0.469; in data set [3] (ractopamine 0.05 ng/ml), 1.276. The A450 in data set [3] (ractopamine 0.1 ng/ml) was found to be 1.181; in data set [3] (ractopamine 0.5 ng/ml), 0.566; in data set [3] (ractopamine 1 ng/ml), 0.404; in data set [3] (ractopamine 5 ng/ml) it was 0.151.
Take `CC(NCCc1ccc(O)cc1)C(O)c1ccc(O)cc1` (stereo not drawn) [Ritodrine]: the A450 in data set [4] (ritodrine 1 ng/ml) was 1.791; in data set [4] (ritodrine 5 ng/ml), 1.602; in data set [4] (ritodrine 10 ng/ml), 1.562; in data set [4] (ritodrine 50 ng/ml), 1.260; in data set [4] (ritodrine 100 ng/ml), 1.088; in data set [4] (ritodrine 500 ng/ml), 0.584. In data set [4] (ritodrine 1000 ng/ml), this compound yielded an A450 of 0.440.
